Data as given in publication doi:10.1101/2022.06.06.494920.
Where a protein sequence is shown, tags need not be part of it.

Molecular target: T1, LexA (Nostoc sp. PCC 7120) (UniProt A0ACD7RYW4)
T1 sequence (looked up): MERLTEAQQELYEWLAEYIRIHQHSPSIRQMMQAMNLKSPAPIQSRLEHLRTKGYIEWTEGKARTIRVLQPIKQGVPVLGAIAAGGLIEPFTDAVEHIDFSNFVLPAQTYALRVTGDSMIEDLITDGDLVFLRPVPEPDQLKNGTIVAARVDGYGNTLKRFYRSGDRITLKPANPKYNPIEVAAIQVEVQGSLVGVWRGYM
Assay: EMSA
Details: residues 1-201; probe letters rebuilt from the primers and the genome

Question: How did the half-maximal binding turn out when “GACGGTACCAAAAAACAATAGGGATATCAGACAGAATTAAAAACGCAAAATTTAAAACTCAAAACGGGAGATTTTGAATTTTGAATTTTGAATTGCTAAACAGTCCTCTTACCCATAAAGCGGAAGAATAACTTCTCCATCTCCACCCAAACAAACATCAAGGCGCTGAAGCCGACGCAAATTGCTAACTCGTCAAGTGGTAGCCAGTGAGTGCCAAAGAAATCCCGCAGGGGTGGAACGTAGACCAGCATGAGTTGCAAAATTGTTGTGACAACAACTGCCCCTAATACATAAGGATTTGAGACAGGAGAGCTCGTC (double strand) [PrecF]” was run?
Answer: The half-maximal binding was 101 nM.
